Test results taken from US11992479B2, “R-fadrozole for use in the treatment of aldostonerism” (priority 2018, dated 2024).
Where two headings read alike, the source gives them in different places. Marks after values point to notes of the source that are not given here.

Tests used:
CYP11B2 = conditions: preclinical studies; cited from earlier work
[1] = test system: 11β-deoxycorticosterone (DOC); conditions: mean ± SEM
Source text: The diet consisted of 70-80 mEq/day of sodium and 80-90 mEq/day of potassium. Blood samples were obtained daily at the time points indicated in the accompanying Tables for measurements of aldosterone, 11β-deoxycorticosterone (DOC), and potassium (K^+). All of the blood samples were obtained while the subjects were seated in a resting state.
DOC was quantified by an LC-MS/MS methodology. In preparation the steroids were extracted using the Absolute/DQStereo17 Kit from Biocrates Life Sciences AG, Innsbruck, Austria. The steroids were extracted and subjected to LC-MS/MS analysis according to the manufacturer's instructions. The triple quadrupole mass spectrometer (Waters 1-Class 2D UPLC Xevo TQ-S was calibrated using the standards provided in the kit. The assays were performed as provided by the manufacturers.

SMILES	inhibition of CYP11B2 (CYP11B2)	Plasma 11β-deoxycorticosterone (DOC) concentrations ([1]; 4 mg once daily, Day 1, 08:00 h, pretreatment) [ng/mL]	Plasma 11β-deoxycorticosterone (DOC) concentrations ([1]; 4 mg once daily, Day 2, 08:00 h) [ng/mL]	Plasma 11β-deoxycorticosterone (DOC) concentrations ([1]; 4 mg once daily, Day 8, 08:00 h)	Plasma 11β-deoxycorticosterone (DOC) concentrations ([1]; 4 mg once daily, Day 9, 08:00 h)	Plasma 11β-deoxycorticosterone (DOC) concentrations ([1]; 8 mg once daily, Day 1, 08:00 h, pretreatment) [ng/mL]	Plasma 11β-deoxycorticosterone (DOC) concentrations ([1]; 8 mg once daily, Day 2, 08:00 h)	Plasma 11β-deoxycorticosterone (DOC) concentrations ([1]; 8 mg once daily, Day 8, 08:00 h)	Plasma 11β-deoxycorticosterone (DOC) concentrations ([1]; 8 mg once daily, Day 9, 08:00 h)	Plasma 11β-deoxycorticosterone (DOC) concentrations ([1]; 16 mg once daily, Day 1, 08:00 h, pretreatment) [ng/mL]	Plasma 11β-deoxycorticosterone (DOC) concentrations ([1]; 16 mg once daily, Day 2, 08:00 h)	Plasma 11β-deoxycorticosterone (DOC) concentrations ([1]; 16 mg once daily, Day 8, 08:00 h)	Plasma 11β-deoxycorticosterone (DOC) concentrations ([1]; 16 mg once daily, Day 9, 08:00 h)
Cl.N#Cc1ccc([C@H]2CCCc3cncn32)cc1 [FAD 286A, (R)-(+)-5-(p-cyanophenyl)-5,6,7,8-tetrahydroimidazolium[1,5-a]pyridine chloride]	potent inhibitor of CYP11B2												
N#Cc1ccc([C@H]2CCCc3cncn32)cc1.O=P(O)(O)O [DP13, (R)-(+)-5-(p-cyanophenyl)-5,6,7,8-tetrahydroimidazolium[1,5-a]pyridine dihydrogen phosphate]		0.04 ± 0.01	0.07 ± 0.01	0.14 ± 0.02^c,d ng/mL	0.14 ± 0.02^a,d ng/mL	0.06 ± 0.01	0.13 ± 0.03^b,d ng/mL	0.24 ± 0.03^c,d ng/mL	0.26 ± 0.04^a,d ng/mL	0.05 ± 0.01	0.19 ± 0.05^b,d ng/mL	0.52 ± 0.09^c,d ng/mL	0.48 ± 0.13^a,d ng/mL
